Data source: PubChem BioAssay AID493246 (Drosophila RNAi Screening Center, 2011)

Aim: 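Genes fly cells need to grow and stay alive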 (primary screen)
Cell system: Drosophila Kc and S2R+ cells
Reagent: long dsRNA against Drosophila genes
Measured: 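Raw, unnormalised count of remaining cells in each well; per-plate z-scores of cell number underlie the calls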
Direction: Kc cell number and S2R+ cell number: higher = more cells remaining
Rule for the call: 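Counted as a hit if cell number falls by a z-score of at least 3 within its plate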
The deposit covers about 21,000 reagents; shown is a random part of those that have a named target and a result. Over the whole deposit, 429 (2%) are marked active. 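Values are raw and not normalised between plates; calls rest on per-plate z-scores that were not deposited.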 Entries without a mark were called inactive. The numbers tell different reagents against one gene apart. Names joined by + are all predicted targets of the reagent. The record does not give: the amount of reagent, the time to read-out.

| target gene | dsRNA no. | Kc cell number, rep 1 | Kc cell number, rep 2 | S2R+ cell number, rep 1 | S2R+ cell number, rep 2 |
| --- | --- | --- | --- | --- | --- |
| CG14355 | 1 | 1.77e6 | 1.87e6 | 1.45e6 | 1.46e6 |
| MFS16 | 1 | 1.56e6 | 1.61e6 | 1.21e6 | 2.95e5 |
| CG14931 | 1 | 1.77e6 | 1.69e6 | 1.19e6 | 1.45e6 |
| Gnf1 | 1 | 1.73e6 | 1.83e6 | 1.03e6 | 1.09e6 |
| Cyp9f2 | 1 | 1.52e6 | 1.58e6 | 1.30e6 | 1.34e6 |
| CG13992 | 1 | 1.47e6 | 1.40e6 | 1.12e6 | 1.28e6 |
| Gr98d | 1 | 1.51e6 | 1.59e6 | 1.04e6 | 1.15e6 |
| js | 1 | 1.29e6 | 1.31e6 | 1.15e6 | 1.33e6 |
| Atg7 | 1 | 5.28e5 | – | 7.36e5 | – |
| Atg7 | 2 | 1.50e6 | 1.56e6 | 1.25e6 | 1.37e6 |
| CG14132 | 1 | 1.30e6 | 1.40e6 | 1.18e6 | 1.30e6 |
| CG11247 | 1 | 1.31e6 | 1.37e6 | 1.06e6 | 1.18e6 |
| ATPsynD | 1 | 1.44e6 | 1.51e6 | 7.74e5 | 8.73e5 |
| CG34029 | 1 | 5.33e5 | – | 8.46e5 | – |
| cbt | 1 | 1.33e6 | 1.27e6 | 7.38e5 | 8.57e5 |
| Nprl2 | 1 | 1.45e6 | 1.50e6 | 1.05e6 | 1.10e6 |
| ntc | 1 | 1.38e6 | 1.48e6 | 1.30e6 | 1.22e6 |
| CG17219 | 1 | 1.64e6 | 1.65e6 | 1.15e6 | 1.37e6 |
| Ir84a | 1 | 1.53e6 | 1.66e6 | 1.30e6 | 1.45e6 |
| Sec23 | 1 | 1.57e6 | 1.57e6 | 1.11e6 | 1.18e6 |
| Ice1 | 1 | 1.26e6 (active) | 1.37e6 | 9.01e5 | 9.34e5 |
| l(3)psg2 | 1 | 1.36e6 | 1.39e6 | 1.13e6 | 7.66e5 |
| AOX1 | 1 | 1.60e6 | 1.61e6 | 1.41e6 | 1.49e6 |
| CG16863 | 1 | 1.41e6 | 1.51e6 | 1.22e6 | 1.40e6 |
| CG33170 | 1 | 1.55e6 | 1.67e6 | 1.33e6 | 1.48e6 |
| l(3)neo43 | 1 | 1.18e6 | 1.43e6 | 1.04e6 | 1.13e6 |
| CG42376 + cin | 1 | 5.04e5 | – | 8.39e5 | – |
| CG14760 | 1 | 1.47e6 | 1.54e6 | 1.27e6 | 1.34e6 |
| Hpd | 1 | 1.59e6 | 1.64e6 | 1.51e6 | 1.48e6 |
| CG13559 | 1 | 1.49e6 | 1.58e6 | 1.23e6 | 1.30e6 |
| CG31741 | 1 | 1.59e6 | 1.73e6 | 1.26e6 | 1.45e6 |
| CG9406 | 1 | 1.52e6 | 1.82e6 | 1.44e6 | 4.86e5 |
| CG18622 | 1 | 1.37e6 | 1.34e6 | 1.16e6 | 1.27e6 |
| Obp19a | 1 | 1.52e6 | 1.61e6 | 1.05e6 | 1.21e6 |
| IntS11 | 1 | 6.04e5 | – | 7.86e5 | – |
| Actn3 | 1 | 1.34e6 | 1.35e6 | 1.10e6 | 1.22e6 |
| ix | 1 | 1.42e6 | 1.42e6 | 1.09e6 | 1.25e6 |
| CG17068 | 1 | 1.48e6 | 1.55e6 | 1.03e6 | 1.22e6 |
| CG9205 | 1 | 1.32e6 | 1.34e6 | 1.20e6 | 1.14e6 |
| Gpat4 | 1 | 1.38e6 | 1.48e6 | 1.15e6 | 1.19e6 |
| mRpL1 | 1 | 1.68e6 | 1.84e6 | 1.10e6 | 1.28e6 |
| D19B | 1 | 1.66e6 | 1.62e6 | 8.86e5 | 9.64e5 |
| krimp | 1 | 1.34e6 | 1.36e6 | 1.20e6 | 1.22e6 |
| CG3984 | 1 | 1.35e6 | 1.50e6 | 9.98e5 | 1.15e6 |
| CG31683 + CG18858 | 1 | 1.50e6 | 1.59e6 | 1.25e6 | 3.13e5 |
| Shaw | 1 | 1.61e6 | 1.58e6 | 1.15e6 | 1.41e6 |
| Shaw | 2 | 1.56e6 | 1.64e6 | 1.05e6 | 1.19e6 |
| Nagk | 1 | 1.60e6 | 1.68e6 | 1.43e6 | 1.50e6 |
| mthl13 | 1 | 1.46e6 | 1.47e6 | 1.02e6 | 1.13e6 |
| Cog3 | 1 | 1.17e6 | 1.33e6 | 8.69e5 | 8.36e5 |
| Jhbp11 | 1 | 1.59e6 | 1.62e6 | 1.07e6 | 1.17e6 |
| COX6AL2 | 1 | 1.59e6 | 1.64e6 | 1.24e6 | 1.39e6 |
| Sqor | 1 | 1.44e6 | 1.49e6 | 1.31e6 | 1.34e6 |
| mRpS21 | 1 | 1.42e6 | 1.55e6 | 1.05e6 | 1.15e6 |
| Asph | 1 | 1.72e6 | 1.82e6 | 1.16e6 | 1.23e6 |
| Asph | 2 | 1.30e6 | 1.37e6 | 1.12e6 | 1.17e6 |
| CG32945 | 1 | 1.46e6 | 1.53e6 | 1.14e6 | 1.40e6 |
| amrt | 1 | 1.56e6 | 1.56e6 | 9.81e5 | 1.06e6 |
| Jon99Ci | 1 | 1.47e6 | 1.46e6 | 1.07e6 | 1.20e6 |
